This list was built around the results that the source calls inconclusive (neither active nor inactive); the mix of calls is not that of the screen. Active and inactive are the calls of the source.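 Rule for the calls: active = fitted curve reaches -35% activity change at up to twice the top valid dose, with every replicate test run active; inconclusive = replicate test runs disagree on the call; inactive = all runs inactive, no -35% crossing or signal rises.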
Assay: inhibition of EBV LMP1-induced NF-kB luciferase – cell-based, HEK293, dry powder, dose response (AID 624373)
Settings: HEK293 LMP1-TES2 NF-kB luciferase reporter, 16 h; at 26 µM (top of the series) unless noted

| SMILES | activity change, negative = inhibition |
| --- | --- |
| C/C(=N\NC(=S)Nc1cccc(C)c1)c1ccccn1 | inconclusive: -45.6% |
| CCc1ccc(/C=C2\SC(=S)N(CCCC(=O)Nc3ccccn3)C2=O)cc1 | inactive: 12.1% |
| C[C@H](CO)N1C[C@H](C)[C@@H](CN(C)CC2CCCCC2)OCCCC[C@H](C)Oc2ccc(NC(=O)Nc3cccc4ccccc34)cc2C1=O | inactive: 27.7% |
| CNC[C@@H]1Oc2ccc(NS(=O)(=O)c3cn(C)cn3)cc2CC(=O)N([C@H](C)CO)C[C@@H]1C | inactive: 37.6% |
| C[C@@H]1CCCCO[C@H](CN(C)C(=O)CCC(F)(F)F)[C@H](C)CN([C@@H](C)CO)C(=O)c2cc(NC(=O)CCC(F)(F)F)ccc2O1 | inconclusive: -37% |
| O=c1[nH]c(Nc2nc3ccccc3o2)nc2c1CCCC2 | inconclusive: 66.8% |
| COc1ccc(-c2csc3ncnc(NCCN4CCOCC4)c23)cc1 | inactive: 30.3% |
| COc1ccc(-c2cc3nc4n(c(=O)c3s2)CCC4)cc1 | inactive: 23.4% |
| c1ccc(-c2cn3c4c(sc3n2)CCCC4)cc1 | inactive: 7.22% |
| C[C@@H]1CCCCO[C@H](CN(C)S(=O)(=O)c2ccccc2)[C@@H](C)CN([C@@H](C)CO)C(=O)c2cc(N(C)C)ccc2O1 | inconclusive: -9.93% |
| C=CCN1Cc2ccccc2[C@@H]2OC(c3ccc(OCCCO)cc3)=N[C@]2(CCC(=O)OC(C)(C)C)C1=O | inconclusive: 0.495% |
| O=C(CCc1ccccc1)NC(c1cccs1)c1cc(Cl)c2cccnc2c1O (configuration not stated) | inconclusive: -3.08% |
